# Results published in PubChem BioAssay AID651640 (Broad Institute, 2012).
# Values joined by “and” are separate entries in the source; they are usually repeats but may differ in a detail not shown here. Identical values can stand only once. In all, about 350,000 compounds went through this assay and about 6,000 (1.7%) were called active. This list was built around the results that the source calls inconclusive (neither active nor inactive); the mix of calls is not that of the screen. Rule as the data show it: active = CPE inhibition above about 20% (passing the limit was not always enough); inconclusive = no clear call, values can overlap the other calls; tested in BHK-21 cells.
# Experiment: protection of cells from dengue 2 killing – plate reader, single concentration, primary screen (AID 651640);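 also: 0% = median of neutral control wells and 100% = median of positive control wells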
# Settings: DENV2-infected cells, cytopathic effect rescue, at 9.99 µM, stronger effect = higher value
row,Structure (SMILES),CPE inhibition
1,CC(NC(=O)CN1CCN(c2cccc(Cl)c2)CC1)c1ccccc1 (stereo not drawn),active: 44.2%
2,C[C@H]1CN([C@@H](C)CO)C(=O)c2cc(NS(=O)(=O)c3ccc(F)cc3)ccc2O[C@@H]1CN(C)S(=O)(=O)c1ccc(F)cc1,active: 54.5%
3,CC[C@]1(C(=O)OC)[C@H]2C(=O)N(C)C(=O)[C@H]2[C@H]2CN(C)C(=NCc3ccccc3)N21,inconclusive: 51.3%
4,C/C(=N/NC(=O)c1ccncc1)c1cc2ccc(O)cc2oc1=O,inactive: -14.8%
5,C[C@@H]1CN([C@@H](C)CO)C(=O)c2cc(NS(=O)(=O)c3cccs3)ccc2O[C@@H](C)CCCCO[C@H]1CN(C)S(=O)(=O)c1cn(C)cn1,active: 30.9%
6,COc1ccc(C(=O)c2ccccc2)c(OCC(=O)N(C)C)c1,inconclusive: 44.8%
7,O=C(NCC1CC1)[C@H]1[C@H](CO)[C@H]2Cn3c(ccc(-c4ccccc4F)c3=O)[C@@H]1N2Cc1cccnc1,inactive: -0.668%
8,Cc1ccc(C)c(N2CCN(C(=O)CCc3nc(-c4ccccc4)no3)CC2)c1,active: 20.3%
9,Cc1cccc(NC(=S)N2CCN(c3ccccn3)CC2)c1,inactive: -2.47%
10,C[C@@H]1CN([C@@H](C)CO)C(=O)c2cccc(NC(=O)NC3CCCCC3)c2O[C@@H]1CN(C)CC1CCCCC1,inactive: 12.9%
11,CC(=O)N1[C@@H]2c3ccc(-c4ccccc4)c(=O)n3C[C@H]1[C@H](CO)[C@H]2C(=O)Nc1ccccc1,active: 48.1%
12,CCc1nnc(NS(=O)(=O)c2ccc(NC(=O)c3ccc([N+](=O)[O-])s3)cc2)s1,inconclusive: 25.6%
13,CC(=O)Nc1ccc(Cl)c(-c2nc3ncccc3o2)c1,inconclusive: 26%
14,O=C(CCl)N1CCN(S(=O)(=O)c2ccc3c(c2)CCC3)CC1,inconclusive: 22.1%
15,CN(C)CC(=O)N1[C@H](C#N)[C@H](c2ccc(C#CC3CCCCC3)cc2)[C@@H]1CO,active: 39.7%
16,COc1ccc(C(=O)/C=C/C(=O)N(Cc2ccccc2)C(C(=O)NC2CCCCC2)c2ccncc2)c(O)c1 (stereo not drawn),active: 40.8%
17,COc1ccc(CN(C)C[C@@H]2OCCCC[C@@H](C)Oc3ccc(NS(=O)(=O)c4cn(C)cn4)cc3C(=O)N([C@H](C)CO)C[C@@H]2C)cc1,active: 60.6%
18,CCOc1ncccc1C(=O)Nc1cc(S(=O)(=O)N2CCCCCC2)ccc1OC,inconclusive: 70%
19,Cc1ccccc1S(=O)(=O)N1CCCCN2[C@H](C1)[C@H](c1ccc(-c3cncnc3)cc1)[C@@H]2CO,inactive: 1.54%
20,CCOC(=O)[C@]12CCC=C1N(CCC1=CCCCC1)C(=O)[C@H](CC(=O)NCC1CCCCC1)C2,inconclusive: 41.4%
21,CCCNC(=O)N1CC2(CN(Cc3ccccn3)C2)c2c(n(C)c3cc(OC)ccc23)[C@@H]1CO,inconclusive: 45.4%
22,CC(=O)N1[C@@H]2c3ccc(C4=CCCCC4)c(=O)n3C[C@H]1[C@H](CO)[C@H]2C(=O)NC1CCCC1,inactive: 4.76%
23,C[C@H](CO)N1C[C@H](C)[C@@H](CN(C)C(=O)NC2CCCCC2)Oc2c(NS(=O)(=O)c3ccc(Cl)cc3)cccc2C1=O,inactive: 4.63%

row,Structure (SMILES),CPE inhibition
1,COc1ccc(OC)c(S(=O)(=O)NCC(c2ccco2)S(=O)(=O)c2ccccc2)c1 (stereo not drawn),inconclusive: 39.5%
2,CCC(=O)N1CC2(C1)[C@H](c1ccc(-c3ccccc3)cc1)[C@H](CO)N2S(C)(=O)=O,inactive: -1.26%
3,Cc1ccc([C@H]2C(C(=O)O)=C[C@@H](C(C)(C)C)N2S(=O)(=O)c2ccc(C)cc2)cc1,inconclusive: 75.8%
4,CCC(C)(C)NC(=O)C(c1cccc(OC)c1OC)N(CCOC)C(=O)CCC(=O)Nc1cc(C)on1 (stereo not drawn),inconclusive: 52.5%
5,CC1=C(C(=O)OCc2ccccc2)C(c2cccc([N+](=O)[O-])c2)NC(=O)N1 (stereo not drawn),inconclusive: 29.5%
6,COc1cccc(N2CCN(C(=O)c3cc(-c4ccc(F)cc4)[nH]c3C)CC2)c1,inconclusive: 32.9%
7,Cc1ccc(S(=O)(=O)C(C)C(=O)NCCS(=O)(=O)c2ccc(Cl)cc2)cc1 (stereo not drawn),inconclusive: 21.1%
8,O=C(N(c1ccccn1)c1ccccn1)C12CC3CC(CC(Cl)(C3)C1)C2,inactive: 0.84%
9,CCCN(Cc1nnc(-c2ccccc2Cl)o1)C(=O)COc1ccc(Cl)cc1,inconclusive: 47.7%
10,C=CCN(CC=C)C(=O)c1ccc2nc(Cc3ccc(OC)c(OC)c3)oc2c1,inactive: -0.0725%
11,COc1ccc(-c2ccc(CN3C(C(C)C)C(=O)N(Cc4cn(Cc5ccco5)nn4)CCS3(=O)=O)cc2)cn1 (stereo not drawn),inconclusive: 21.5%
12,CCC(C)(C)C1CCC(=NNS(=O)(=O)c2ccc(C)c([N+](=O)[O-])c2)CC1 (stereo not drawn),inactive: 17.4%
13,C[C@H](CO)N1C[C@H](C)[C@@H](CN(C)C(=O)Nc2cccc3ccccc23)Oc2ccc(NS(=O)(=O)c3ccccc3)cc2C1=O,inactive: -0.038%
14,C[C@H]1CCCCO[C@@H](CN(C)C(=O)C2CCCCC2)[C@@H](C)CN([C@@H](C)CO)C(=O)c2cc(NC(=O)c3ccncc3)ccc2O1,inconclusive: 76%
15,O=C(COC(=O)Cc1ccc(Br)cc1)Nc1ccc(N2CCOCC2)cc1,inconclusive: 39.8%
16,CCCCCCn1c(=O)n2n(c1=O)C[C@]1(OC(=O)NCc3ccc(OC)c(OC)c3)CN(S(=O)(=O)c3ccc(C)cc3)C[C@]1(O)C2,active: 33.2%
17,COc1ccc(NC(=O)N2CC3(C2)CN(CC2CC2)[C@H](CO)c2c3c3ccc(OC)cc3n2C)cc1,inactive: 3.67%
18,CCCC(=O)Nc1ccc2c(c1)OC[C@@H](C)N(C(=O)c1ccccn1)C[C@@H](C)[C@@H](OC)CN(C)C2=O,active: 21%
19,COc1cccc(C#Cc2cnc3c(c2)C(=O)N([C@@H](C)CO)C[C@H](C)[C@@H](CN(C)C(=O)C2CC2)O3)c1,inconclusive: 34.9%
20,COc1cc2nc(N(CCCN(C)C)C(=O)c3ccc(S(=O)(=O)N4CCc5ccccc54)cc3)sc2cc1OC,inconclusive: 24.7%
21,CO[C@@H]1CN(C)C(=O)c2ccc(NC(=O)C3CCC3)cc2OC[C@@H](C)N(C(=O)NC(C)C)C[C@H]1C,inactive: -8.22%
22,C[C@@H]1CCCCO[C@H](CN(C)C(=O)NC2CCCCC2)[C@@H](C)CN([C@@H](C)CO)C(=O)c2cc(NC(=O)Nc3ccc(C(F)(F)F)cc3)ccc2O1,inactive: -3.71%
23,C[C@H](CO)N1C[C@H](C)[C@H](CN(C)S(=O)(=O)c2ccc(Cl)cc2)Oc2ccc(NS(=O)(=O)c3cccs3)cc2C1=O,inactive: -3.01%

row,Structure (SMILES),CPE inhibition
1,COc1cccc(CN2[C@@H]3CN(C(=O)c4ccncc4)c4ccccc4[C@@H]3[C@@H]2CO)c1,active: 20.8%
2,C[C@@H]1CN([C@@H](C)CO)C(=O)c2cc(NC(=O)C3CCCCC3)ccc2O[C@@H](C)CCCCO[C@@H]1CN(C)C(=O)Cc1ccccc1,inconclusive: 74.8%
3,CC(C)NC(=O)N(C)C[C@H]1Oc2c(NC(=O)c3ccc(-c4nccs4)cc3)cccc2C(=O)N([C@@H](C)CO)C[C@H]1C,inactive: -2.21% and inactive: 14.4%
4,Cc1ccc([C@H]2C[C@H](O)[C@@H](n3cc(COC(=O)c4ccccc4)nn3)CN2Cc2cccs2)cc1,inconclusive: 21.5%
5,COCC(=O)N(C)C[C@H]1Oc2ncc(C#Cc3cccnc3)cc2C(=O)N([C@H](C)CO)C[C@H]1C,active: 24.3%
6,OCCN1CCN(c2cc(C(F)(F)F)nc3c(F)cccc23)CC1,inconclusive: 30%
7,CCc1nc2ccc(C(=O)Nc3cc(-c4ccccc4)ccc3OC)cn2c1N(C=O)CCC(C)C,inconclusive: 40.1%
8,Cn1c(SCC(=O)NCC2CCCO2)ncc(C(=O)Nc2ccccc2)c1=O (stereo not drawn),inconclusive: 75%
9,C[C@@H]1CN([C@H](C)CO)S(=O)(=O)c2ccc(-c3ccc(C(=O)N(C)C)cc3)cc2O[C@@H]1CN(C)C(=O)C1CCOCC1,inconclusive: -0.564%
10,COc1ccc(NC(=O)c2cn(-c3ccccc3)nc2SC)cc1,active: 30.9%
11,COc1ccc(NC(=O)Nc2ccc3c(c2)C(=O)N([C@H](C)CO)C[C@@H](C)[C@@H](CN(C)C(=O)Nc2ccc4c(c2)OCO4)OCCCC[C@@H](C)O3)cc1,inactive: -5.37%
12,Cc1ccc(C(=O)NC2CCCC2)cc1S(=O)(=O)N1CCCCC1,inconclusive: 51.9%
13,C[C@@H]1CN([C@H](C)CO)S(=O)(=O)c2ccc(C3=CCCCC3)cc2O[C@@H]1CN(C)S(=O)(=O)c1ccc(F)cc1,active: 23.4%
14,CC[C@]12CCCN3CCc4c(n(c5ccccc45)C(=O)C1)[C@@H]32,inconclusive: 28.7%
15,Cc1ccc(S(=O)(=O)Nc2ccc3c(c2)CC(=O)N([C@H](C)CO)C[C@H](C)[C@@H](CN(C)C(=O)Nc2ccc(F)cc2)O3)cc1,inactive: 16.2%
16,C[C@@H]1CCC(=O)N(CC[C@H](Oc2ccccc2)c2ccccc2)CC1,inconclusive: 23.9%
17,NC(=O)c1[nH]cnc1N,inconclusive: 22.2%
18,O=C1C=CC(=O)c2c(O)c(CO)c(CO)c(O)c21,inactive: -11.9%
19,CCCC(=O)Nc1nnc(/C=C/c2ccc(OC)cc2)s1,inactive: -5.19%
20,O=C(CN1C(=O)COc2ccc(Cl)cc21)NCC1CCCO1 (stereo not drawn),inactive: -7.68%
21,CC(C)Oc1ccc(F)cc1-c1cc(C(=O)NCc2cccs2)[nH]n1,inconclusive: 27.5%
22,COc1cccc(NC(=O)N(C)C[C@H]2Oc3cc(-c4ccccc4F)ccc3S(=O)(=O)N([C@@H](C)CO)C[C@H]2C)c1,inactive: -6.02%
